Drawing on PubChem BioAssay AID248 (DTP/NCI, 2004), this text covers T/C and survivor count for three compounds.

For this assay, the system named is L1210 leukemia ip in BDF1 mice, survival T/C. Nature of the assay: NCI In Vivo Anticancer Drug Screen. Data for tumor model L1210 Leukemia (intraperitoneal) in B6D2F1 (BDF1) mice. The conditions noted are these: T/C endpoint: mean survival time, higher T/C = longer survival.

The list is a part of this screen's results and no random one: it gathers tests that were run many times, whatever their T/C, doses with no T/C, and many T/C values between a quarter and a half above the control. Other doses and runs of a compound stand elsewhere. T/C gives the treated animals as a percentage of the vehicle group. Some doses have a count of surviving animals in place of a T/C: the source files T/C as zero there, which appears to mark a toxic dose or a test without result, not a measured value. Some survivor counts are full or nearly so, which does not show that the dose was tolerated: survival well below the control is almost never listed, so the zero probably covers shortened survival too. Counts of survivors are from the toxicity check (mostly the fifth day) where no day follows; animals may have died later. Schedules are NCI's codes, read here as Q, the interval in days (D) or hours (H), X, the number of doses. Some schedules carry Z or #; the key to these is not given. For survival time, this PubChem deposit counts one and a half times the control or more as active, and values a quarter to a half above the control carry no call in these data; other NCI protocols may use other cut-offs. Some T/C values carry the count of animals alive at the toxicity check (mostly the fifth day); without a count, all were alive then.

With `CN[C@H]1CCc2cc(OC)c(OC)c(OC)c2-c2ccc(OC)c(=O)cc21`, the T/C reads like this: (dose: 4.0 mg/kg/injection, schedule: Q03HX008 (ip), vehicle: saline) 129 % of control; (dose: 8.0 mg/kg/injection, schedule: Q01DX009 (ip), vehicle: saline) 137 % of control; (dose: 8.0 mg/kg/injection, schedule: Q## X024 (ip), vehicle: saline) 143 % of control; (dose: 16.0 mg/kg/injection, schedule: Q01DX009 (ip), vehicle: saline) 139 % of control; (dose: 16.0 mg/kg/injection, schedule: Q## X008 (ip), vehicle: saline) 135 % of control [8 of 10 alive]; (dose: 20.0 mg/kg/injection, schedule: Q01DX009 (ip), vehicle: saline) 142 % of control [4 of 6 alive]. Further, the T/C was 141 % of control (dose: 30.0 mg/kg/injection, schedule: Q01DX009 (ip), vehicle: saline); 136 % of control (dose: 32.0 mg/kg/injection, schedule: Q01DX004 (ip), vehicle: saline); 134 % of control [9 of 10 alive] (dose: 32.0 mg/kg/injection, schedule: Q## X008 (ip), vehicle: saline); 134 % of control (dose: 64.0 mg/kg/injection, schedule: Q## X002 (ip), vehicle: saline); 147 % of control (dose: 64.0 mg/kg/injection, schedule: Q## X003 (ip), vehicle: saline). In addition, the survivor count is on record as 6 of 10 (dose: 16.0 mg/kg/injection, schedule: Q01DX004 (oral), vehicle: saline); 1 of 10 (dose: 16.0 mg/kg/injection, schedule: Q03HX008 (ip), vehicle: saline); 2 of 4 (dose: 18.0 mg/kg/injection, schedule: Q01DX001 (ip), vehicle: saline); 2 of 4 (dose: 26.0 mg/kg/injection, schedule: Q01DX001 (ip), vehicle: saline); 1 of 10 (dose: 32.0 mg/kg/injection, schedule: Q01DX009 (oral), vehicle: saline); 0 of 10 (dose: 32.0 mg/kg/injection, schedule: Q## X024 (ip), vehicle: saline). In addition, the survivor count by setting is: (dose: 40.0 mg/kg/injection, schedule: Q01DX001 (ip), vehicle: saline) 1 of 4; (dose: 60.0 mg/kg/injection, schedule: Q01DX001 (ip), vehicle: saline) 0 of 4; (dose: 64.0 mg/kg/injection, schedule: Q01DX001 (oral), vehicle: saline) 6 of 10; (dose: 64.0 mg/kg/injection, schedule: Q01DX009 (ip), vehicle: saline) 4 of 10; (dose: 64.0 mg/kg/injection, schedule: Q01DX009 (oral), vehicle: saline) 0 of 10; (dose: 64.0 mg/kg/injection, schedule: Q## X008 (ip), vehicle: saline) 6 of 10. For the same compound, the survivor count (dose: 64.0 mg/kg/injection, schedule: Q## X024 (ip), vehicle: saline) is on record as 0 of 10; the survivor count (dose: 128.0 mg/kg/injection, schedule: Q01DX001 (oral), vehicle: saline) is reported as 2 of 10; the survivor count (dose: 128.0 mg/kg/injection, schedule: Q01DX009 (oral), vehicle: saline) is listed as 0 of 10; the survivor count (dose: 256.0 mg/kg/injection, schedule: Q01DX001 (oral), vehicle: saline) was 2 of 10; the survivor count (dose: 256.0 mg/kg/injection, schedule: Q01DX009 (oral), vehicle: saline) is 0 of 10.

Take `COc1ccc(C(=O)Nc2cccc3ccccc23)cc1`: the survivor count (dose: 100.0 mg/kg/injection, schedule: Q01DX009 (ip), vehicle: carboxymethylcellulose (CMC)) was 3 of 3.

With `C[S+]1Cc2ccccc2C1`, the survivor count (dose: 400.0 mg/kg/injection, schedule: Q04DX003 (ip), vehicle: saline with Tween-80) is 0 of 6.
